{"source": "PubChem BioAssay AID1259254 (NCATS, 2017)", "screen": "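Genome-wide screen for genes that prevent DNA re-replication in cancer cells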 (primary screen)", "system": "human HCT116 colorectal cancer cells", "reagents": "single siRNA against human genes", "duration": "3 days", "measurement": "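Nuclei stained with Hoechst and imaged; cell-cycle phase assigned by DNA content; G2 share scaled per plate, non-targeting siRNA 0%, GMNN siRNA 100%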", "scale": "G2 robust z-score: higher = more G2 cells, more excess DNA replication", "rule for the call": "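An siRNA counts as active if its G2 robust z-score lies at least 5 MADs above the screen median; here such calls match roughly 38% of GMNN control or more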", "note": "Shown is an unselected part of about 59,000 reagents. About 1,550 of them (2.6%) were called active. 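G2 share is only a proxy for re-replication; each gene was hit by three separate siRNAs, and active genes were retested.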 Entries without a mark were called inactive. The numbers tell different reagents against one gene apart. Further read-outs or replicates are left out here. No sequences are given here. The record does not give: the amount of reagent."}
{"target":"MICAL2","reagent no.":1,"G2 robust z-score":0.00461}
{"target":"MICAL2","reagent no.":2,"G2 robust z-score":0.0502}
{"target":"MICAL2","reagent no.":3,"G2 robust z-score":1.78}
{"target":"MICAL2","reagent no.":4,"G2 robust z-score":-0.191}
{"target":"MICAL2","reagent no.":5,"G2 robust z-score":-0.982}
{"target":"MICAL2","reagent no.":6,"G2 robust z-score":-0.591}
{"target":"ZKSCAN8 (zinc finger with KRAB and SCAN domains 8)","reagent no.":1,"G2 robust z-score":2.1}
{"target":"ZKSCAN8 (zinc finger with KRAB and SCAN domains 8)","reagent no.":2,"G2 robust z-score":1.75}
{"target":"ZKSCAN8 (zinc finger with KRAB and SCAN domains 8)","reagent no.":3,"G2 robust z-score":0.521}
{"target":"DRC11 (dynein regulatory complex subunit 11)","reagent no.":1,"G2 robust z-score":2.7}
{"target":"DRC11 (dynein regulatory complex subunit 11)","reagent no.":2,"G2 robust z-score":-0.969}
{"target":"DRC11 (dynein regulatory complex subunit 11)","reagent no.":3,"G2 robust z-score":-0.221}
{"target":"SURF4 (surfeit 4)","reagent no.":1,"G2 robust z-score":2.43}
{"target":"SURF4 (surfeit 4)","reagent no.":2,"G2 robust z-score":-0.00421}
{"target":"SURF4 (surfeit 4)","reagent no.":3,"G2 robust z-score":0.201}
{"target":"CYP26B1 (cytochrome P450 family 26 subfamily B member 1)","reagent no.":1,"G2 robust z-score":-1.44}
{"target":"CYP26B1 (cytochrome P450 family 26 subfamily B member 1)","reagent no.":2,"G2 robust z-score":2.47}
{"target":"CYP26B1 (cytochrome P450 family 26 subfamily B member 1)","reagent no.":3,"G2 robust z-score":0.473}
{"target":"CFAP100 (cilia and flagella associated protein 100)","reagent no.":1,"G2 robust z-score":-0.656}
{"target":"CFAP100 (cilia and flagella associated protein 100)","reagent no.":2,"G2 robust z-score":1.32}
{"target":"CFAP100 (cilia and flagella associated protein 100)","reagent no.":3,"G2 robust z-score":0.287}
{"target":"SLC22A5","reagent no.":1,"G2 robust z-score":0.211}
{"target":"SLC22A5","reagent no.":2,"G2 robust z-score":3.17}
{"target":"SLC22A5","reagent no.":3,"G2 robust z-score":"7.08 (active)"}
